In ChEMBL document CHEMBL4402545, “Subtype Selective γ-Aminobutyric Acid Type A Receptor (GABAAR) Modulators Acting at the Benzodiazepine Binding Site: An Update” (J Med Chem, 2020):

Molecular target: T1, Gamma-aminobutyric acid receptor subunit alpha-5 (Homo sapiens, UniProt P31644)
T1 sequence (P31644 whole entry): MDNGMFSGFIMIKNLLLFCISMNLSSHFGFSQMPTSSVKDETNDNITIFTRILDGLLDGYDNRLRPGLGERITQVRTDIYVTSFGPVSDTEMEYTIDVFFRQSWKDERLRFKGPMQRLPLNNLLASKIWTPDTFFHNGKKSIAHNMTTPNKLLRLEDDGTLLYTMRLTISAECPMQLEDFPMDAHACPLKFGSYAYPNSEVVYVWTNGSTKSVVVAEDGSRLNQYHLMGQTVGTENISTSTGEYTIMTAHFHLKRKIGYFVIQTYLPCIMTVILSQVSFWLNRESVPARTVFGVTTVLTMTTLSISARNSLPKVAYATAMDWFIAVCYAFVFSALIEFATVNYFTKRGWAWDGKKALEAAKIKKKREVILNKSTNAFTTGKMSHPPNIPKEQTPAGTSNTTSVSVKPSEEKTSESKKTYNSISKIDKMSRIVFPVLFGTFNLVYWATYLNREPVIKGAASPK
Test: Binding affinity to GABA-A alpha5 (unknown origin)

Work on `CN1C(=O)CN=C(c2ccccc2)c2cc(Cl)ccc21` [DIAZEPAM] yielded a Ki of 0.015 µM.
